Patent US20230124862A1, “BISMUTH THIOL COMPOUNDS AND COMPOSITIONS AND METHODS OF TREATING MICROBIAL CO-INFECTIONS” (Microbion Corporation, priority 2020, published 2023)

Tested on: MucilAir fully differentiated human airway epithelium

C1C[S][Bi]([S]CC[S][Bi]2[S]CC[S]2)[S]1 [BisEDT, Bismuth-1,2-ethanedithiol]
highest non-toxic concentrations as fold the MIC (particulate or solubilized form): 25-345 fold | highest tested concentration (20.83 μg/mL) fold higher than the MIC (solubilized BisEDT, vs M. avium): 2.5-10 fold | highest tested concentration (20.83 ug/mL) fold higher than the MICs (solubilized BisEDT, vs most tested CF bacterial isolates): 20-347 fold
